# Test results from ChEMBL document CHEMBL5120863, “Sophorolipids: Anti-cancer activities and mechanisms” (Bioorg Med Chem, 2022).
# Tested on: K562
# Assay: cells
# Conditions: Homo sapiens, K562, 24 h
smiles,measurement,value
COc1cccc2c1C(=O)c1c(O)c3c(c(O)c1C2=O)C[C@@](O)(C(=O)CO)C[C@@H]3O[C@H]1C[C@H](N)[C@H](O)[C@H](C)O1 [DOXORUBICIN],IC50,2500 nM
